Measurements from patent US20240190865A1, “T-TYPE CALCIUM CHANNEL ANTAGONISTS AND USES THEREOF” (THE BOARD OF TRUSTEES OF THE LELAND STANFORD JUNIOR …, priority 2021, published 2024).
At least one structure is not confirmed: it was looked up by name or label, or the drawing left a doubt.

Tested on: Miro1
Experiment: Miro1 reduction after compound administration, Western blot
Format: cell-based
Conditions: Western blot method

Row | Compound | Miro1 Lowering
1 | COC(=O)C1=C(C)NC(C)=C(C(=O)OC(C)C)C1c1cccc2nonc12 (centres unmarked) [Isradipine] | NO
2 | Nc1nnc(-c2cccc(Cl)c2Cl)c(N)n1 [Lamotrigene] | NO
